Data set [1] can be described thus: general procedure: Fmoc solid-phase peptide synthesis; Fmoc-Gly Wang resin; HBTU. To be noted: whole synthesis, scale 0.1 mmol.
Data set [2] in a line: general procedure: Fmoc solid-phase peptide synthesis; Fmoc-Gly-Wang resin; HBTU. The note with it: whole synthesis, scale 0.25 mmol.

Substance “H-ACDCRGDCFCG-OH (cysteine pairing not given here)” yielded a crude mass in data set [1] of 100 mg.
As to “[Cys^7-9]cyclo[CH2CO-Lys-Asp-Cys]-Arg-Gly-Asp-Cys-Phe-Cys-Gly-Gly-OH”, the crude mass in data set [2] is reported as 260 mg.

For the origin of these results see patent publication US7737252 (dated 2010).
